Assay results: paper PMC6368627
No constants are given. Whether binding was seen depends on the method and setting. Binding seen in cells or lysates may run through a third protein. These calls come from enrichment with a bait or labelling near it, and not all partners need be listed. For part of these data: No binding means not detected with the bait. Blank lines part the entries; values can stand above or below the molecule they belong to.

Sequences of proteins named here, by UniProt entry; tags and fusion partners are left off.
UniProt Q01338: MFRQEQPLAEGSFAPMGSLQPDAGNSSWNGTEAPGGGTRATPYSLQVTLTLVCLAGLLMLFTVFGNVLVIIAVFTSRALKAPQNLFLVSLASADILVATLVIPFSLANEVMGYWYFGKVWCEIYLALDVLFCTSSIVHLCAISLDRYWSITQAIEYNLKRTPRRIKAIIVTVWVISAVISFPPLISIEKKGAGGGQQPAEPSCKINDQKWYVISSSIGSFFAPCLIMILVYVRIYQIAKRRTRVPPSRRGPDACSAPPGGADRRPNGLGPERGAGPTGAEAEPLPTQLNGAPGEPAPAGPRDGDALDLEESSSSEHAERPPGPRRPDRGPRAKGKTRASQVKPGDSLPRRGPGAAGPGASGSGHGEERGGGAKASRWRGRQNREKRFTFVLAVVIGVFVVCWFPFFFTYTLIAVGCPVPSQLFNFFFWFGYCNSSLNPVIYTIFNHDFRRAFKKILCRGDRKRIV
UniProt P63216: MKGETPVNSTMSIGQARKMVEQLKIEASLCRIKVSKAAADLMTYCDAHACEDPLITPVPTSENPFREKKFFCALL
UniProt Q61016: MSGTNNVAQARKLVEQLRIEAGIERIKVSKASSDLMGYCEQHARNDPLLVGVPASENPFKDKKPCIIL

Tests used:
[1] = molecular target: FLAG-α2a adrenergic receptor (transgenic mouse, Dbh promoter, on α2aAR knockout background) (UniProt Q01338); experiment: affinity purification with mass spectrometry; co-IP with anti-FLAG from synaptosomes of FLAG-α2aAR mice stimulated with 100 µM epinephrine, DSP cross-linked; eluted with FLAG peptide, TCA-precipitated, trypsin-digested, quantitative MRM; controls KO no epi, FLAG-α2aAR no epi, KO + epi
[2] = molecular target: Hemagglutinin tagged (HA)-α2a adrenergic receptor (knock-in mouse) (mouse) (UniProt Q01338); experiment: affinity purification with mass spectrometry; co-IP with anti-HA from synaptosomes of HA-α2aAR mice stimulated with 100 µM epinephrine, DSP cross-linked; Gβ and Gγ bands excised from SDS-PAGE gel, quantitative MRM with heavy labeled peptides; controls WT no epi, HA-α2aAR no epi, WT + epi

binding [1]: binds
binding [2]: binds
Molecule: G protein γ3 subunit (from UniProt P63216 1-75)

binding [1]: no binding
Molecule: G protein γ7 subunit (from UniProt Q61016 1-68)

binding [1]: no binding
B1: G protein γ13 subunit (protein, UniProt Q9JMF3 1-67)
chain: MEEWDVPQMKKEVESLKYQLAFKREMSSKTIPELLKWIEDGIPKDPFLNPDLMKNNPWVEKAKCTIL

binding [1]: binds
binding [2]: binds
B2: G protein γ4 subunit (protein, UniProt P50153 1-75)
chain: MKEGMSNNSTTSISQARKAVEQLKMEACMDRVKVSQAASDLLAYCEAHVREDPLIIPVPASENPFREKKFFCTIL
